For one substance, binding results are on record in article PMC10447538.

By UniProt entry, the sequences of proteins in these tests, tags left out.
UniProt P08670: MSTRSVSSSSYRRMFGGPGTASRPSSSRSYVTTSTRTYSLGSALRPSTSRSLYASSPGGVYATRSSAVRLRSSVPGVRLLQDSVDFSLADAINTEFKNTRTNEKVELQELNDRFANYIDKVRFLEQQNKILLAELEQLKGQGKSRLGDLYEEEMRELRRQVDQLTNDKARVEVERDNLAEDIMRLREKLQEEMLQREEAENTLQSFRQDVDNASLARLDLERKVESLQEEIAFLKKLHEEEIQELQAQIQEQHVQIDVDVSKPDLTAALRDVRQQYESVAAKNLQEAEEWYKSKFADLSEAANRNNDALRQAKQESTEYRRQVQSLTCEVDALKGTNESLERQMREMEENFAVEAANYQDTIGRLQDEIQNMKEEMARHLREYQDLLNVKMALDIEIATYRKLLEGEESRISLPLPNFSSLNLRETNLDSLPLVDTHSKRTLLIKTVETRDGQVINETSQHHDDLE

The target of assay [1] is T1, Flag-tagged LGSN (lengsin, lens protein with glutamine synthetase domain) (human) (UniProt Q5TDP6).
T1 sequence: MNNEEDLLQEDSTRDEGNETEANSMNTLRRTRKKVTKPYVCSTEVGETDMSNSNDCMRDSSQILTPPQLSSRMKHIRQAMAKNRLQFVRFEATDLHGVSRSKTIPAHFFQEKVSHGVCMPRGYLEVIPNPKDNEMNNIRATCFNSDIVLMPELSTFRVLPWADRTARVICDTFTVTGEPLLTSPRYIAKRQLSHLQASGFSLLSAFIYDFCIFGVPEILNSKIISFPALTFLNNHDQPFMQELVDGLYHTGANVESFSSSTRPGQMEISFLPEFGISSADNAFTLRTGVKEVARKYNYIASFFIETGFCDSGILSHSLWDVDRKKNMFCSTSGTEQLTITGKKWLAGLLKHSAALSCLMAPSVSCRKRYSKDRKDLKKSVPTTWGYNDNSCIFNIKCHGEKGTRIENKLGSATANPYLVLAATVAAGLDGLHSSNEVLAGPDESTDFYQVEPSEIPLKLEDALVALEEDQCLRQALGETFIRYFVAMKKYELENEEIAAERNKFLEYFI
The assay is described as follows: co-IP; Flag pull-down of Flag-tagged LGSN from cell lysate, western blot for vimentin. For orientation: In western blotting, separated proteins are transferred to a membrane and probed.

The target of assay [2] is T2, endogenous LGSN (lengsin, lens protein with glutamine synthetase domain) (human (endogenous in GCSC1)) (UniProt Q5TDP6).
T2 sequence: T1 sequence
The assay is described as follows: co-IP; co-immunoprecipitation of endogenous LGSN and vimentin from GCSC1 cells, western blot.

These are yes or no findings as the source states them, for the method shown. Binding seen in cells or lysates may run through a third protein. Some results given as binding are weak or reduced against the parent protein; the word gives no strength. For some assays here: Sequences can lack the tags named with a protein.

Consider vimentin (from UniProt P08670 1-466), for which the binding result in assay [1] and in assay [2] was “binds” throughout.
